Reference: PMC4538566 (Journal of Medicinal Chemistry, 2015)

Experiment: In situ rat perfusion
Type: in vivo
Settings: 100 μM, six independent experiments

Ka1 absorption rate coefficient: 0.22 h^–1
Compound: CC(C)NCC(O)COc1ccc(CC(N)=O)cc1 (stereo not shown) [atenolol]
